The whole screen tested about 1,200 compounds, of which about 20 (2%) were called active. About 23% were inconclusive and are not listed. Calls follow the shape of the dose curve; as a rule, active = well fitted inhibition curve with a large enough effect; inconclusive = small, poorly fitted or top-dose-only effect; inactive = no such curve, though single readings can be large or run the other way. Some of the results follow.
biological target: Transcriptional regulator ERG (Homo sapiens) (UniProt P11308); experiment: qHTS for Small Molecule Inhibitors of the ERG Ets/DNA interaction: HTRF assay against cherry picks; conditions: His-ERG Ets domain with biotin-DNA; at 154 µM (top of the series)
Text: The Ets family of proteins is a family of ~30 conserved transcription factors defined by the presence of an ~85 amino acid domain referred to as the Ets domain, which mediates sequence-specific DNA binding to a core DNA element GGAA/T.The Ets family member ERG has been linked to several neoplasms. […] More extensive studies of the effects of over-expression of ERG in prostate cells have recently been carried out and have shown that over-expression of ERG results in increased invasion. […] We will carry out a high throughout screen to identify inhibitors of the interaction between ERG and DNA using a fluorescence polarization (FP) assay with a His-tagged ERG Ets domain and fluorescently-labeled DNA probes to develop small molecule inhibitors of this interaction as probes to test this hypothesis and lay the groundwork for the development of targeted therapies against ERG. This is the counterscreen against the cherry picks. NIH Molecular Libraries Probe Production Network [MLPCN] NIH Chemical Genomics Center [NCGC] Grant: NS066464 PI Name: John Bushweller, University of Virgina
2 ul of protein solution (200 nM ERG domain in 300mM KCl, 50mM Tris-HCl, 1mM EDTA, 1mM DTT, pH 7.5); 20 nl Control plate and compound library plate; 2 ul of 200 nM biotin-DNA; incubate for 10 min at RT; 1 ul of anti-His antibody conjugated to the long-life fluorescent cryptate donner […] (5ng/ul) and streptavidin conjugated to the acceptor compound […] (0.2 ng/ul) mix; incubate 10 min and measure FRET (Excitation = 320 nm, Emission = 615, 665 nm).

The chains behind the UniProt entries cited, without tags or fusion partners. Where a name states a change or a piece, a line headed by the entry shows the natural chain unless it says otherwise.
UniProt P11308: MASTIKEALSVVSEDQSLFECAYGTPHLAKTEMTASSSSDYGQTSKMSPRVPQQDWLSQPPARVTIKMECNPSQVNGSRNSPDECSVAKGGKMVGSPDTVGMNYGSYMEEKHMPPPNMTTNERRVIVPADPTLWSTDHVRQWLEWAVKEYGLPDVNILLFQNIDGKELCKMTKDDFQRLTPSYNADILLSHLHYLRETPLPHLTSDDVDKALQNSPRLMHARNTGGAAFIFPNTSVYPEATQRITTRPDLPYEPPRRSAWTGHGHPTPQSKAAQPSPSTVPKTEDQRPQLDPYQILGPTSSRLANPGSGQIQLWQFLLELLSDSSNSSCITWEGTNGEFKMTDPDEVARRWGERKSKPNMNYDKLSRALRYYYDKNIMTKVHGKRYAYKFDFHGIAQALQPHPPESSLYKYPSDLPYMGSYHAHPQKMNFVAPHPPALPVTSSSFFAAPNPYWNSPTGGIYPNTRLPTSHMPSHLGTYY

Compound | activity change, negative = inhibition
CN1[C@@H]2CCC[C@H]1CC(=O)C2 | inactive: -23.7%
COc1cc(C[C@@H](C)N)c(OC)cc1I | inactive: -31.3%
C[C@]12CCC(=O)C[C@@H]1CC[C@@H]1[C@@H]2CC[C@]2(C)[C@@H](O)CC[C@@H]12 | inactive: -19.5%
COC(=O)NC(=C(Cl)Cl)P(=O)(c1ccccc1)c1ccccc1 | inactive: -23.8%
O=C(Cc1ccccc1)Oc1ccc([N+](=O)[O-])cc1 | inactive: -15.5%
O=C(COc1ccccc1)NCCc1cnc[nH]1 | inactive: -29%
C[N+]1(C)[C@@H]2CC[C@H]1CC(OC(=O)C(CO)c1ccccc1)C2 (some centres undefined) | inactive: -26.6%
CC(=O)C1(c2ccccc2)CCN(C(=O)C2CCC(=O)N(CCc3cccc(F)c3)C2)CC1 (centres undefined) | inactive: -19.4%
CC(=O)N1CC(=O)Nc2ccc(F)cc2C1c1ccccc1 (centres undefined) | inactive: 4.99%
C[C@]12CCC(=O)C=C1CC[C@@H]1[C@@H]2CC[C@@]2(C)[C@H]1CC[C@]2(C)O | inactive: -25.7%
COc1ccc(C(c2ccc(OC)cc2)C(Cl)(Cl)Cl)cc1 | inactive: -6.95%
COc1ccc2[nH]c(C)c(CCNCc3cccnc3)c2c1 | inactive: -9.44%
O=c1c2ccccc2nc(-c2ccco2)n1-c1ccccc1 | inactive: -33.5%
O=C(CCc1nnc2ccc(NCc3ccccc3Cl)nn12)N1CCC2(CC1)OCCO2 | inactive: -24.1%
COc1cccc(-n2c(/C=C/c3cccc(C)c3)nc3ccccc3c2=O)c1 | inactive: -27.6%
N#CCN1CCN(c2ccc(C(F)(F)F)cc2)CC1 | inactive: -12.9%
Cc1ccc(-c2nc3ccccc3c(=O)n2-c2cccc(O)c2)cc1 | inactive: -28.1%
CN1C[C@@H]2C[C@@H](c3cccn3-c3ccccn3)N3CCC[C@@]23C1=O | inactive: -0.477%
NC(=O)Cn1cc(C=C2C(=O)NC(=O)NC2=O)c2ccccc21 | inactive: -4.93%

Not a retest: an excerpt of the list.
Compound | activity change, negative = inhibition
Cc1ccc(-c2nc3ccccc3c(=O)n2-c2cccc(O)c2)cc1 | inactive: -28.1%
CN1C[C@@H]2C[C@@H](c3cccn3-c3ccccn3)N3CCC[C@@]23C1=O | inactive: -0.477%

From PubChem BioAssay AID651804 (National Center for Advancing Translational Sciences (NCATS), 2012)
